# This is one part of the list. Further columns of the screen follow, without active or inactive calls. Most of these compounds were active or inconclusive in the main read-out, so they are no random draw. The note in brackets gives the kind of curve behind each potency; many fits are weak.
# Assay: IkB Signaling
# Settings: ABC-DLBCL IkBa-CBG/CBR dual luciferase ratio (green luciferase fused to IkBa over red control in OCI-Ly3 lymphoma cells), 4 h
# Outline: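 Luminescence ratio of IκBα-fused green versus native red beetle luciferase in OCI-Ly3 cells, 4 h post-doxycycline with compound; red signal alone, scaled from basal (0%) to zero light (-100%), flagged nonspecific or cytotoxic effects.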
# [1] = measured here: control luc red channel unless noted
# [2] = measured here: IkB-luc green channel
# [3] = measured here: control luc red channel
compound,measurement,setting,value
COc1cccc(-c2cc(C(=O)N3CCCCCC3)no2)c1,AC50,[1],"12.6 µM [falling, partial curve]"
COC(=O)c1cccc(NC(=O)c2cc3sccc3n2C)c1,AC50,[2],"39.8 µM [falling, single point]"
same,AC50,[3],"25.1 µM [falling, partial curve]"
Cc1ccccc1-c1nc(CS(=O)CC(=O)NCCCN(C)c2ccccc2)c(C)o1 (stereo not drawn),AC50,[1],"12.6 µM [falling, partial curve]"
COc1ccc(-c2cc(C(F)(F)F)nc(S(C)(=O)=O)n2)cc1OC,AC50,[1],"10 µM [falling, partial curve]"
COc1ccc(N2C(=O)C(CC(=O)Nc3ccc(Cl)cc3)N(Cc3ccc4c(c3)OCO4)C2=O)cc1 (stereo not drawn),AC50,[1],"25.1 µM [falling, partial curve]"
Cc1cccc2sc(N(Cc3cccnc3)C(=O)CCS(=O)(=O)c3ccccc3)nc12,AC50,[1],"39.8 µM [falling, single point]"
O=C(c1ccco1)N1CCN(S(=O)(=O)c2ccc(Br)s2)CC1,AC50,[1],"39.8 µM [rising, single point] [measured here: IkB-luc green channel]"
Cc1cccc(-c2nc(SCc3cc(=O)c4cccc(F)c4[nH]3)n[nH]2)c1,AC50,[1],"31.6 µM [falling, single point]"
Cc1ccc(C)c(N2CCN(C(=O)CN3CCSc4ccccc43)CC2)c1,AC50,[1],"10 µM [falling, partial curve]"
CCOc1ccc(CCNC(=O)CSc2nnnn2-c2ccccc2Cl)cc1OCC,AC50,[1],"15.8 µM [falling, partial curve, poor fit]"
CCOc1ccc(-c2nnn(CC(=O)c3ccc4c(c3)OCCO4)n2)cc1OCC,AC50,[1],"39.8 µM [falling, single point]"
COc1c(C)cc(Br)cc1C(=O)Nc1cccc(NC(=O)c2ccco2)c1,AC50,[1],"6.31 µM [falling, partial curve]"
Fc1ccc(F)c(Nc2c3c(nc4ccc(Cl)cc24)CCC3)c1,AC50,[1],"20 µM [falling, partial curve]"
CCCN(C#N)c1nc(NCC)nc(NC(C)C)n1,AC50,[1],"7.94 µM [falling, single point]"
Cc1cc(C)c(NC(=O)C2CCN(C(=O)N3CC(C)Oc4ccc(Cl)cc43)CC2)c(C)c1 (stereo not drawn),AC50,[1],"20 µM [falling, single point]"
Cc1cc(C)cc(NS(=O)(=O)c2ccc(-c3cc(C)no3)s2)c1,AC50,[1],"25.1 µM [rising, partial curve]"
Cc1ccc(-c2nc3cc(Cl)ccc3o2)cc1NC(=O)c1cc2ccccc2o1,AC50,[1],"1 µM [falling, partial curve]"
Cc1c(C(=O)N(C)C)sc2c1c(=O)n(-c1ccccc1C(F)(F)F)c(=O)n2Cc1ccccc1C#N,AC50,[1],"25.1 µM [rising, single point]"
CC(C)Cc1nn2c(=O)cc(COC(=O)c3cccc(NC(=O)c4cccs4)c3)nc2s1,AC50,[1],"0.251 µM [falling, full curve]"
CC[C@@H](CO)Nc1nc(NCc2ccccc2)c2ncn(C(C)C)c2n1,AC50,[2],"25.1 µM [falling, partial curve]"
same,AC50,[3],"20 µM [falling, partial curve]"
Cc1ccccc1Cn1c(=O)n(CC2CCC(C(=O)N3CCC(C)CC3)CC2)c(=O)c2sccc21 (stereo not drawn),AC50,[1],"39.8 µM [falling, single point]"
Cc1ccc(NCc2cccn2-c2nnc(N3CCC(C(=O)NCc4ccccc4C)CC3)s2)cc1,AC50,[1],"7.94 µM [falling, partial curve]"
COc1ccc(CN2CCCN(CC(=O)Nc3ccc(Br)cc3F)S2(=O)=O)cc1,AC50,[1],"25.1 µM [falling, partial curve]"
Cc1ccc(-n2ncc(C(=O)NCc3ccc4c(c3)OCO4)c2C2CCN(C(=O)OC(C)(C)C)CC2)cc1C,AC50,[1],"10 µM [falling, partial curve]"
CCOc1ccc(NC(=O)CC2Nc3cccc4cccc(c34)NC2=O)cc1 (stereo not drawn),AC50,[1],"39.8 µM [falling, single point]"
Cc1cc(-c2ccc(S(=O)(=O)Nc3cccc(C(F)(F)F)c3)s2)on1,AC50,[1],"20 µM [falling, partial curve]"
CC(C)Sc1ncc(Cl)c(C(=O)Nc2nc3ccc(S(C)(=O)=O)cc3s2)n1,AC50,[1],"12.6 µM [falling, partial curve]"
CN(C(=O)CSc1nc2ccc(NC(=O)COc3ccc(F)cc3)cc2s1)c1ccccc1,AC50,[1],"20 µM [falling, partial curve]"
Cc1cc(C(=O)CSc2nc3ccccc3n2CCC#N)c(C)n1Cc1cccs1,AC50,[1],"20 µM [falling, partial curve]"
CCN(CC(=O)Nc1ccc2c(c1)OCO2)Cc1nc2ccccc2c(=O)[nH]1,AC50,[1],"20 µM [falling, single point]"
O=C(Nc1ccc2nc(-c3ccc(Br)o3)[nH]c2c1)c1ccco1,AC50,[1],"12.6 µM [falling, partial curve]"
CC(=O)N1CCc2c(sc(NC(=O)C3CC3)c2-c2nc3ccccc3s2)C1,AC50,[1],"5.01 µM [falling, partial curve]"
CCOc1ccc2c(c1)c(=O)c(S(=O)(=O)c1ccc(CC)cc1)cn2CC,AC50,[1],"1 µM [falling, partial curve]"
CCn1c(SCC(=O)c2ccc(C)cc2)nnc1-c1ccoc1C,AC50,[1],"50.1 nM [rising, partial curve, poor fit] [measured here: IkB-luc green channel]"
CCOc1ccccc1-c1noc(CSc2nnc(-c3ccncc3)n2-c2ccc(F)cc2)n1,AC50,[1],"31.6 µM [falling, single point]"
COc1cccc(C(=O)N2CCSC2=S)c1,AC50,[1],"12.6 µM [falling, partial curve]"
Cn1c(=O)n(Cc2ccccc2Cl)c(=O)c2c1nc1n2CCN1c1ccccc1,AC50,[1],"12.6 µM [falling, partial curve]"
Cc1c(Cl)cccc1NC(=O)CSc1nc(=O)n(Cc2ccncc2)c2c1CCC2,AC50,[1],"39.8 µM [falling, single point]"
Cc1ccc(C(=O)COC(=O)CCCC(=O)Nc2cc(C(F)(F)F)ccc2Cl)cc1C,AC50,[1],"31.6 µM [falling, partial curve]"
Cc1oc(-c2ccc(C(=O)NCCCOC(C)C)cc2)nc1CS(=O)(=O)c1ccccc1,AC50,[1],"25.1 µM [falling, single point]"
COc1ccccc1N(CC(=O)NC1CCCC1)C(=O)CCC(=O)Nc1cc(C)on1,AC50,[1],"5.01 µM [falling, partial curve]"
COC(=O)c1sc(NC(=O)c2ccc(Cn3cc(Cl)cn3)o2)c(C#N)c1C,AC50,[1],"12.6 µM [falling, partial curve]"
Cc1cc(Nc2ccccc2F)n2nc(Cc3ccc(Cl)cc3)nc2n1,AC50,[1],"0.158 µM [rising, full curve]"
CC(C)c1noc(-c2ccccc2OCC(=O)Nc2ccccc2[N+](=O)[O-])n1,AC50,[1],"15.8 µM [falling, partial curve]"
Cc1cc(Nc2ccc(Cl)cc2C)nc(-n2nc(C)cc2C)n1,AC50,[1],"25.1 µM [falling, partial curve, poor fit]"
O=C(NCc1ccc2c(c1)CCN2C(=O)c1ccc(F)cc1)c1ccco1,AC50,[1],"31.6 µM [rising, partial curve]"
CCN(C(=O)c1cc2c(=O)n3cccc(C)c3nc2s1)c1ccc(C)c(C)c1,AC50,[1],"20 µM [falling, single point]"
CCOC(=O)c1ccc(NC(=O)C2(S(=O)(=O)c3ccc(Cl)cc3)CC2)cc1,AC50,[1],"25.1 µM [falling, partial curve, poor fit]"
Cc1cccc(C)c1NS(=O)(=O)c1ccc(NS(=O)(=O)c2ccc3c(c2)OCCO3)cc1,AC50,[1],"25.1 µM [falling, partial curve]"
CCC(=O)c1ccc(CCCCCC(=O)O)s1,AC50,[1],"0.794 µM [falling, full curve]"
Cc1ccc(C)c(N2CCN(CCCNC(=O)c3ccc4nc(N5CCCCC5)sc4c3)CC2)c1,AC50,[1],"15.8 µM [falling, partial curve]"
Cc1ccc(-c2nnc(Nc3ccccc3)c3ccccc23)cc1S(=O)(=O)NCc1nc2ccccc2[nH]1,AC50,[1],"5.01 µM [falling, partial curve]"
Cc1cccc(N2CCN(C(=O)CCS(=O)(=O)c3ccc4c(c3)oc(=O)n4C)CC2)c1C,AC50,[1],"31.6 µM [falling, single point]"
O=C(CSc1nnnn1-c1ccccc1Cl)Nc1ccc2c(c1)OCCO2,AC50,[1],"15.8 µM [falling, partial curve]"
Cc1oc2c(O)c(O)ccc2c(=O)c1-c1cnn(-c2ccccc2)c1,AC50,[1],"10 µM [falling, partial curve]"
COc1ccccc1C(=O)Nc1cccc(C(=O)OCc2cc(=O)n3nc(C)sc3n2)c1,AC50,[1],"12.6 µM [falling, partial curve]"
O=C(CN1C(=O)C2(SCC(=O)N2c2ccccc2)c2ccccc21)NCc1ccccc1 (stereo not drawn),AC50,[1],"12.6 µM [falling, partial curve]"
CCCNC(=O)C(CC)n1nc(CC)n2c(cc3oc(C)cc32)c1=O (stereo not drawn),AC50,[1],"5.01 µM [rising, partial curve, poor fit]"
COc1ccc(-c2ccc(C(=S)N3CCN(C(C)=O)CC3)o2)cc1,AC50,[1],"39.8 µM [rising, single point] [measured here: IkB-luc green channel]"
COc1ccc2nc(NC(=O)c3ccc(Br)s3)sc2c1,AC50,[1],"3.98 µM [falling, full curve, poor fit]"
Cc1cc(C)n(-c2nc3ccccc3nc2N2CCN(c3cccc(C)c3C)CC2)n1,AC50,[1],"6.31 µM [falling, single point]"

# Copied from the results shown for reference:
compound,measurement,setting,value
CCOc1ccc(NC(=O)CC2Nc3cccc4cccc(c34)NC2=O)cc1 (stereo not drawn),AC50,[1],"39.8 µM [falling, single point]"
Cc1cc(-c2ccc(S(=O)(=O)Nc3cccc(C(F)(F)F)c3)s2)on1,AC50,[1],"20 µM [falling, partial curve]"

# — PubChem BioAssay AID445 (National Center for Advancing Translational Sciences (NCATS), 2006)
